Test results published in US20260023068A1, “USE OF A FBXO42 SPECIFIC INHIBITOR IN TREATING NOTCH SIGNALING-DEPENDENT DISEASE” (WESTLAKE UNIVERSITY, priority 2022, published 2026).
Results are given in words; binding and its absence hold for the method and conditions named. In cells and extracts the contact can be indirect. Some results given as binding are weak or reduced against the parent protein; the word gives no strength.

By UniProt entry, the sequences of proteins in these tests, tags left out. Where a name states a change or a piece, a line headed by the entry shows the natural chain unless it says otherwise. Chains listed by the source or under a name are the forms on record and can include a tag or linker. Residues count along the entry.
UniProt Q06330: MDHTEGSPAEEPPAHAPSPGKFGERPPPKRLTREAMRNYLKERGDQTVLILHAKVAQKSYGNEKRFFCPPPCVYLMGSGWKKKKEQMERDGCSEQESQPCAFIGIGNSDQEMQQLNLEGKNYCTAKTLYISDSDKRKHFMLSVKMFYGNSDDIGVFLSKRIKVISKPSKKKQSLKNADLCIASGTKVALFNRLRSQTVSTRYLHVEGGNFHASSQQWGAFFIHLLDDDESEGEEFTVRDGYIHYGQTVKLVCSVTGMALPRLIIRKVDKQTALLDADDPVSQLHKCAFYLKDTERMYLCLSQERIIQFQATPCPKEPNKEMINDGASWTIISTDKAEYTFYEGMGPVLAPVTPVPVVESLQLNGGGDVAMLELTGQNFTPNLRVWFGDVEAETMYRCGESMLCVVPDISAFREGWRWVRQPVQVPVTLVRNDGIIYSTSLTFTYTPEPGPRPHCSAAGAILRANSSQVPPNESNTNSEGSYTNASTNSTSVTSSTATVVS
cSFB-tagged RBPJ NTD (N-terminal domain, amino acids 1-178): residues 1-178 of Q06330
UniProt Q6P3S6, residues 101-350: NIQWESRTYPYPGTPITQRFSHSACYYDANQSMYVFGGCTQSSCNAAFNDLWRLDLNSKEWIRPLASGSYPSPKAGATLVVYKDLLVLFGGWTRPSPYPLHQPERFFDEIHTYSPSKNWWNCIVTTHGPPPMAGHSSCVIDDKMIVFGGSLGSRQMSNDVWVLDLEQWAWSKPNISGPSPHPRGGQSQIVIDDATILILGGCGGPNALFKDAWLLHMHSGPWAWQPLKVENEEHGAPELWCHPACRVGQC

Key:
[1] = biological target: cSFB-tagged RBPJ NTD (N-terminal domain, amino acids 1-178) (UniProt Q06330); experiment: co-IP (S beads) of Myc-tagged FBXO42 Kelch domain and cSFB-tagged RBPJ NTD in HEK293T cells, western blot
[2] = biological target: T1, L3MBTL3 (lethal(3) malignant brain tumor-like protein 3) (UniProt Q96JM7); experiment: S-protein bead pull-down of cSFB-RBPJ from WT and FBXO42-KO HEK293T cells, immunoblot with endogenous antibodies
T1 sequence (looked up): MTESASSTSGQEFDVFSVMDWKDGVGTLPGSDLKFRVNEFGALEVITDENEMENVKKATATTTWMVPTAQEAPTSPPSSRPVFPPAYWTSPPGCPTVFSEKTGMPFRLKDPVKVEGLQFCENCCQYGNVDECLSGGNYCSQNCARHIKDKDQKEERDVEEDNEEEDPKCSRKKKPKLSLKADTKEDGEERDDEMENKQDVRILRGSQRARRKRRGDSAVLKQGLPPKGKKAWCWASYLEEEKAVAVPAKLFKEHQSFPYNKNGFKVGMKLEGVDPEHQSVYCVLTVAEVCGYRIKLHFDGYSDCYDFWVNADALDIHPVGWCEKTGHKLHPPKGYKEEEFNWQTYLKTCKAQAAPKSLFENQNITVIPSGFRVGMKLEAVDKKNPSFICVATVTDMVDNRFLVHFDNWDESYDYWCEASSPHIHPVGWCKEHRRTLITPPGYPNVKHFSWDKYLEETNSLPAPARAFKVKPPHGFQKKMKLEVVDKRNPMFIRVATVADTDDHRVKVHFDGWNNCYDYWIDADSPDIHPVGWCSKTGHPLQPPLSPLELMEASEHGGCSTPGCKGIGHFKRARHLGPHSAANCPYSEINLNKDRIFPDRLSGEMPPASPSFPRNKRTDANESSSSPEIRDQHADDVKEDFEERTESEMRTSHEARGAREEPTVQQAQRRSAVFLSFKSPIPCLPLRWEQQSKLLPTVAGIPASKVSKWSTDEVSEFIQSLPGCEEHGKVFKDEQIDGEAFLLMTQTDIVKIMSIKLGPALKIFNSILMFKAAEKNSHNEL

Row | binding [1] | Substance | binding [2]
1 | binds | Myc-tagged FBXO42 Kelch domain (amino acids 101-350) (from UniProt Q6P3S6 101-350) | 
2 |  | cSFB-tagged RBPJ (recombination signal-binding protein of immunoglobulin kappa J region with C-terminal SFB tag) (from UniProt Q06330 1-500) | binds
